Drawing on PubChem BioAssay AID638 (SRMLSC, 2007), this text covers growth inhibition for 89 compounds.

Hit rate of the full screen: of about 1,300 compounds, about 65 (5%) were called active.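 Rule for the calls: active = growth inhibition reaching a set limit at one or more tested doses; inactive = the rest.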 Some of the results follow. Entries with a potency or affinity are not part of this list.

This test in a line: wild-type E. coli BW25113 antibacterial activity – OD615, dose response (AID 638). The following applies: at 100 µM (top of the series) unless noted. An outline of the steps: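 assay system = wild-type Escherichia coli strain BW25113 growth | medium = Kanamycin-supplemented LB broth | measured by = optical density (absorbance) at 615 nm | timing = bacterial exposure to compound 20 h at 37 °C | doses = compound concentration series | measure = IC50 from 4-parameter logistic, bounds fixed 0–100% | controls = chloramphenicol 30 µM control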
For `Cc1onc(-c2ccccc2)c1C(=O)Nc1nnc(N(C)Cc2ccccc2)s1`, the growth inhibition is inactive: -16.6%. On to `O=C1c2ccccc2C(Nc2cccc(C(F)(F)F)c2)N1Cc1ccco1` (centres undefined), for which the growth inhibition is inactive: 0.2%. With `CCOC(=O)c1cc2c(ccn2C)n1Cc1ccccc1C` the figure was inactive: 9.69%. For the compound `O=c1c2cc3ccccc3n2cnn1Cc1ccccc1F`, the growth inhibition was inactive: 3.01%. With `CCOC(=O)c1cc2sccc2n1Cc1ccc(C#N)cc1` the figure was inactive: -10.3%; with `O=C(Nc1ccc(N2CCN(C(=O)c3ccco3)CC2)c(Cl)c1)c1c(F)c(F)c(F)c(F)c1F`, inactive: -3.01%.

`O=C(NCc1ccccc1)c1c[nH]c2ccc(S(=O)(=O)Nc3ccc4c(c3)OCCO4)cc2c1=O`: the growth inhibition is inactive: -5.14%. Turning to `O=c1[nH]c(=O)n(C2CCCCCC2)c(O)c1C=NCc1ccc(F)cc1`, the growth inhibition is inactive: -0.14%. With `CCOC(=O)c1csc(Nc2nc3ccc(F)cc3s2)n1`, the growth inhibition is inactive: -3.01%. Regarding `COc1ccc(-c2nc(-c3cccs3)c(-c3cccs3)[nH]2)cc1O`, the growth inhibition was inactive: 1.9%. For `CCOC(=O)C1C(=O)C=C(c2ccc(OC)cc2)CC1c1ccco1` (centres undefined) the value was inactive: 1.71%. `CC1Cc2ccccc2N1C(=O)Cn1c(=O)oc2cc(S(=O)(=O)NC3CCCC3)ccc21` (centres undefined): the growth inhibition is inactive: -0.61%. For `COc1ccc(/C=N/n2c(SC)nnc2-c2ccccc2)cc1C`, the growth inhibition is inactive: -3.03%.

Turning to `N#CC1=C(N)Oc2n[nH]c(-c3cccs3)c2C1c1ccsc1` (centres undefined), the growth inhibition was inactive: 8.94%.

For `Cc1nc2c(-c3ccccc3)c(C)[nH]n2c(=O)c1Cl`, the growth inhibition was inactive: -13.3%. In the case of `O=C(c1cc(C2CC2)on1)N1CCN(C(c2ccccc2)c2ccccc2)CC1`, the growth inhibition was inactive: -2.11%. Turning to `CCn1c(C(=O)N2CCC(Cc3ccccc3)CC2)cc2sccc21`, the growth inhibition is inactive: -18.6%. Take `Cc1cccc(N2CCN(C(=O)c3ccc(NS(=O)(=O)c4c(C)noc4C)cc3)CC2)c1C`: the growth inhibition was inactive: 11.1%.

On to `O/N=C(\c1ccc(Cl)cc1)c1cc2ccccc2o1`, for which the growth inhibition is inactive: 8.62%. As to `CSCCOC(=O)C1=C(C)NC(=O)CC1c1ccccc1Cl` (centres undefined), the growth inhibition was inactive: 3.74%. As to `Cc1ccc(-c2noc(CCC(=O)N3CCN(c4cccc(C(F)(F)F)c4)CC3)n2)cc1`, the growth inhibition is inactive: 6.7%. With `C=CCOC(=O)C(C#N)c1nc2ccccc2nc1N1CCN(Cc2ccccc2)CC1` (centres undefined) the figure was inactive: -7.11%; with `OC(COc1ccc(Cl)c2ccccc12)CN1CCN(c2ccccn2)CC1` (centres undefined), inactive: 1.32%; with `O=C(c1ccc(COc2c(F)c(F)cc(F)c2F)o1)N1CCN(c2ccc(Cl)cc2)CC1`, inactive: -1.68%. Take `CC(C)COC(=O)NCCOC(=O)Nc1cccc(Cl)c1`: the growth inhibition was inactive: 18.9%. Consider `Cc1cccnc1Nc1nc(-c2ccc(O)cc2O)cs1`, for which the growth inhibition is inactive: 17.4%. Take `Cc1cc(=O)oc2c1ccc1oc(/C(=N/O)c3ccccc3)c(C)c12`: the growth inhibition was inactive: -1.42%. With `Cc1cc(N2CCN(C(c3ccccc3)c3ccccc3)CC2)n2ncnc2n1` the figure was inactive: 6.9%; with `CCc1cc2c(=O)n(Cc3ccco3)c(SCc3c(C)noc3C)nc2s1`, inactive: -12.8%. Turning to `CCOC(=O)c1c(C)oc2ccc(NS(=O)(=O)c3ccc4c5c(cccc35)C(=O)N4)cc12`, the growth inhibition was inactive: 6.6%.

Consider `N#Cc1c(NC(NC(=O)c2ccco2)C(=O)c2ccccc2)sc2c1CCCC2` (centres undefined), for which the growth inhibition was inactive: 9.36%.

`Cc1ccccc1-c1nc(CN2CCC(C(=O)NCCC3=CCCCC3)CC2)c(C)o1`: the growth inhibition was inactive: 7.04%. For `c1ccc2oc(SCc3nc4ccccc4s3)nc2c1` the value was inactive: 7.38%. Take `CCCn1c(=O)c(C(=O)Nc2nnc(C)s2)c(O)c2ccccc21`: the growth inhibition was inactive: -8.85%. For `Cc1nn(Cc2ccccc2)c(C)c1C(=O)OCC(=O)c1cc(C)n(C2CC2)c1C` the value was inactive: -2.91%; for `CCCN(CCC)S(=O)(=O)c1ccc(C(=O)Nc2nnc(-c3cccc(OC)c3)o2)cc1`, inactive: -2.06%; for `CCOC(=O)N1CCN(c2nc(N(c3ccccc3)c3ccccc3)nc(-n3ccnc3)n2)CC1`, inactive: -3.06%. With `COC(=O)CNS(=O)(=O)c1ccc(Cc2ccc(S(=O)(=O)NCC(=O)OC)cc2)cc1` the figure was inactive: 12.8%.

For `O=C(CSc1nnc(Cc2ccccc2)n1Cc1ccco1)NC12CC3CC(CC(C3)C1)C2`, the growth inhibition is inactive: 3.5%. As for `CC(C)c1ccc(Nc2nc(NCc3ccco3)nc(N3CCOCC3)n2)cc1`, the growth inhibition is inactive: -9.82%. With `CN(Cc1ccccc1)c1nc2c(c(=O)n(C)c(=O)n2C)n1CCCc1ccccc1`, the growth inhibition was inactive: -5.76%. `Cc1ccc(S(=O)(=O)Nc2cccc(-c3cn4ccsc4n3)c2)cc1`: the growth inhibition was inactive: 5.41%. Consider `CC1CCN(c2nc3ccccc3nc2C(C#N)S(=O)(=O)c2ccccc2)CC1` (centres undefined), for which the growth inhibition is inactive: -11.4%. For `CCOC(=O)c1cccc(NC(=O)Nc2cc(OC)ccc2OC)c1`, the growth inhibition is inactive: -6.94%. Turning to `N#Cc1nc(Cc2ccccc2)oc1NCCc1ccccc1`, the growth inhibition is inactive: 12.8%. For `O=C(C1CCN(Cc2cc(Cl)ccc2O)CC1)N1CCN(Cc2ccccc2)CC1` the value was inactive: 2.23%; for `Cc1onc(-c2ccccc2Cl)c1C(=O)Nc1sc2c(c1C#N)CCC2`, inactive: -19.1%; for `Cc1ccc(SC/C(O)=C(\C#N)c2nc3ccccc3s2)cc1`, inactive: -13.7%.

In the case of `CC(C)(C)C(=O)Cn1c(=N)n(Cc2ccccc2)c2ccccc21`, the growth inhibition was inactive: 1.06%. For `CCOC(=O)c1ccc(Oc2nc(NC(C)(C)C)nc(N(C)C)n2)cc1`, the growth inhibition was inactive: 7.25%. Consider `Cc1ccc(CN2CCSc3ccc(C(=O)N4CCN(c5ncccn5)CC4)cc32)cc1`, for which the growth inhibition is inactive: -1.23%. As for `CCOC(=O)N1CCN(C(=O)COc2ccc(S(=O)(=O)Nc3ccc(OCC)cc3)cc2)CC1`, the growth inhibition is inactive: 3.01%. With `Cc1ccc(Cl)cc1N1CCN(C(=O)COc2ccc(S(=O)(=O)NC(C)C)cc2)CC1` the figure was inactive: -1.24%; with `CCn1c(SCC(=O)OC2CCCCC2)nc2ccccc2c1=O`, inactive: 2.48%. With `CCC(Sc1nnnn1-c1ccccc1)C(=O)Nc1nc2ccccc2s1` (centres undefined), the growth inhibition was inactive: -8.57%. With `COC(=O)C1=C(N)Oc2cc(C)n(Cc3ccco3)c(=O)c2C1c1cccc(Cl)c1` (centres undefined) the figure was inactive: -7.44%; with `CCc1nnc(NC(=O)c2cccc(C(=O)Nc3nnc(CC)s3)n2)s1`, inactive: 9.58%. For `Fc1ccc(C(c2ccc(F)cc2)N2CCN(C/C=C/c3ccccc3)CC2)cc1` the value was inactive: -4.52%; for `CCOC(=O)c1cn(CC)c2cc(N3CCCCC3)c(F)cc2c1=O`, inactive: -6.06%. For the compound `COCCn1nnnc1C(C(C)C)N(Cc1ccccc1)Cc1cc2cc(OC)ccc2[nH]c1=O` (centres undefined), the growth inhibition is inactive: -1.23%. `CC(=O)Nc1cccc(NC(=O)CSc2ncc(-c3ccc(Cl)cc3)n2Cc2ccco2)c1`: the growth inhibition was inactive: -0.91%. With `Cc1cc(N2CCN(c3ccccc3)CC2)nc(-n2nc(C)cc2C)n1` the figure was inactive: 6.96%; with `CCOC(=O)C1Cn2c(nc3c(c2=O)C(C)(CC)Cc2ccccc2-3)S1` (centres undefined), inactive: 4.68%. As for `CSc1nc(-c2ccccc2)nc(N2CCCC2)c1C(C)=O`, the growth inhibition is inactive: 10.2%.

Consider `CC1CCCCC1n1c(=S)[nH]c2ccccc2c1=O` (centres undefined), for which the growth inhibition was inactive: -0.57%.

Regarding `c1ccc(-c2oc3ncnc(NCCN4CCOCC4)c3c2-c2ccccc2)cc1`, the growth inhibition is inactive: 5.59%. With `Cc1cccc(-c2noc(CN(C(=O)c3ccc(Br)o3)C(C)C)n2)c1` the figure was inactive: 10.5%. For `CC1CCCC(C)N1C(=O)CN1CCN(c2nc(-c3ccc(F)cc3)cs2)CC1` (centres undefined), the growth inhibition was inactive: 9.82%. For the compound `O=C(CSc1ncnc2c1oc1ccccc12)N1CCCc2ccccc21`, the growth inhibition is inactive: 8.44%.

As for `Oc1c(C(c2ccco2)N2CCN(C(c3ccccc3)c3ccccc3)CC2)sc2ncnn12` (centres undefined), the growth inhibition is inactive: -1.17%. With `Cc1nnc(NC(=O)c2ccc(S(=O)(=O)N(C)Cc3ccccc3)cc2)o1` the figure was inactive: 3.95%; with `COc1cccc(NC(=O)Nc2nnc(N3CCCCC3C)s2)c1` (centres undefined), inactive: 3.87%; with `N#CC(C#N)=c1ccc2c(c1)N1C3=C(CCCC3)CC3CCCCC31N=2` (centres undefined), inactive: -60.2%. Consider `c1ccc2c(c1)CCN(c1nc3cc4c(cc3s1)OCCO4)C2`, for which the growth inhibition is inactive: -2.25%. With `CN1CCCN(C(=O)Cc2c(Cl)cccc2Cl)c2nc3ccccc3nc21`, the growth inhibition is inactive: -8.97%. With `O=C(c1cccs1)N(Cc1nc2sc3c(c2c(=O)[nH]1)CCCC3)C1CCCC1` the figure was inactive: -3.89%.

In the case of `COC(=O)c1cc(C(=O)CSc2nc(C)cc(C)n2)ccc1O`, the growth inhibition is inactive: 5.02%. For `O=C(Nc1ccn(Cc2ccc(Cl)cc2)n1)c1ccc2c(c1)OCO2` the value was inactive: 10.1%. Regarding `CC(C)c1ccc(OCc2ccc(C(=O)N3CCN(c4ccccn4)CC3)cc2)cc1`, the growth inhibition was inactive: 9.44%. Turning to `Cc1ccc(C2(c3ccc(C)cc3)NC(=O)N(Cc3c(C)noc3C)C2=O)cc1`, the growth inhibition was inactive: 2.9%.

`CCCOc1ccccc1C1CC(=O)Nc2cc3c(cc21)OCCO3` (centres undefined): the growth inhibition is inactive: 9.22%.

Regarding `C=CCn1cc(C(=O)NCc2ccco2)c(=O)c2cc(S(=O)(=O)N3CCCCCC3)ccc21`, the growth inhibition was inactive: -9.96%. `CCSc1oc(-c2ccccc2)nc1S(=O)(=O)c1ccccc1`: the growth inhibition is inactive: -4.91%. For `Cc1nn(-c2ccccc2)c(Cl)c1C(=O)Nc1nnc(C2CCCC2)s1`, the growth inhibition is inactive: -8.57%. Take `CCC(Oc1ccccc1)C(=O)Nc1nnc(C(F)(F)F)s1` (centres undefined): the growth inhibition is inactive: -7.51%.

Take `COc1ccc(-c2[nH]c(-c3cccc(OC)c3)nc2SCC(=O)NCc2ccco2)cc1`: the growth inhibition is inactive: -22%.

Regarding `CC(Oc1ccccc1Br)C(=O)N1CCc2ccccc21` (centres undefined), the growth inhibition was inactive: 1.62%. On to `CC(C)(C)c1ccc(Cn2nnc3c(=O)[nH]c(C4CCCN(C(=O)Cc5cccs5)C4)nc32)cc1` (centres undefined), for which the growth inhibition was inactive: 4.62%. Consider `CCc1cccc(NC(=O)c2ccc(NS(=O)(=O)c3c(C)noc3C)cc2)c1`, for which the growth inhibition is inactive: 3.02%.
